The values that follow come from US20030157685A1.

Chains of the proteins cited; added tags and fusions are not shown. Lines headed by an entry give the natural chain unless they say otherwise; changes in a name come on top. Residues count along the entry.
UniProt P61244, residues 2-160: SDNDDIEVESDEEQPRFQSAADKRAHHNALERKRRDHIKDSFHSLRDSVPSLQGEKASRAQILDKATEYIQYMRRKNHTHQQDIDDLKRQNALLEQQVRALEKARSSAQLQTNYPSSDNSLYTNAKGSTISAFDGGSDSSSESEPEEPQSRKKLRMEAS
UniProt P0A7C2: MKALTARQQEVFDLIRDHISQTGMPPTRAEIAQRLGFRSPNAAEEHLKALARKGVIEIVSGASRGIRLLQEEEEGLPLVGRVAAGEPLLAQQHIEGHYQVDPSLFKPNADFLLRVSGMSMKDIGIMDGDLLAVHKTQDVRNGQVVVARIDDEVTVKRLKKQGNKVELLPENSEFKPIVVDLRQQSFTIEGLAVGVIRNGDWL
UniProt Q08999, residues 417-1139: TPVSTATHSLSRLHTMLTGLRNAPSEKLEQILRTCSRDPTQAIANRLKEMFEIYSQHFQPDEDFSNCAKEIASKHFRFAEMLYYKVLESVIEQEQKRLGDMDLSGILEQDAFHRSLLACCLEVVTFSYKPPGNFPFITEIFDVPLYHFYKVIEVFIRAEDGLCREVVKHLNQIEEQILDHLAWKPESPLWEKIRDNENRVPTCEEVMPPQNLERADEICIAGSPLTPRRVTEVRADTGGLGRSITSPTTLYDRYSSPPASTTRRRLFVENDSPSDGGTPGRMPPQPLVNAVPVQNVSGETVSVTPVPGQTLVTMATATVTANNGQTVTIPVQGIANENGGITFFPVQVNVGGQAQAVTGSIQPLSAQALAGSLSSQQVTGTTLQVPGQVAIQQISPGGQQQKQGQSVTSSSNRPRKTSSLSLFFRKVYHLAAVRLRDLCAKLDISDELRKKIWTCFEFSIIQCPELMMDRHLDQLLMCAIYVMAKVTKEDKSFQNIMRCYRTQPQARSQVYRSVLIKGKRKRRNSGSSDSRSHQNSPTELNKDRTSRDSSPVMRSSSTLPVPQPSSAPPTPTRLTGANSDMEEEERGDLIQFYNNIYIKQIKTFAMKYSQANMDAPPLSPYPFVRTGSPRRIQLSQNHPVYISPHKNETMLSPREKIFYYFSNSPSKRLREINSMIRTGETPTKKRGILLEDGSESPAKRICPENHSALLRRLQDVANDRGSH
UniProt P04198: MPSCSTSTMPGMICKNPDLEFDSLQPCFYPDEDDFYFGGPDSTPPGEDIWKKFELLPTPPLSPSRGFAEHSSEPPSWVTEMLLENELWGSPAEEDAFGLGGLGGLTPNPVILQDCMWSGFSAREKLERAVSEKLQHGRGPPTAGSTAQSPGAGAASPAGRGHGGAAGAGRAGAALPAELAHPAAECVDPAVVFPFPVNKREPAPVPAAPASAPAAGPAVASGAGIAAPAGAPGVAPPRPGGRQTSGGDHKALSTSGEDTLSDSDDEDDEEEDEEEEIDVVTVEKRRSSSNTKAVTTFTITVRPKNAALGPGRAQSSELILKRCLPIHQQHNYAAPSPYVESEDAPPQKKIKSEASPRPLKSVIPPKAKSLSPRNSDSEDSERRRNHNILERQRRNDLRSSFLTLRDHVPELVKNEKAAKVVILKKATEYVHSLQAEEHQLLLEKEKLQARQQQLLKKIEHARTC
UniProt P01106: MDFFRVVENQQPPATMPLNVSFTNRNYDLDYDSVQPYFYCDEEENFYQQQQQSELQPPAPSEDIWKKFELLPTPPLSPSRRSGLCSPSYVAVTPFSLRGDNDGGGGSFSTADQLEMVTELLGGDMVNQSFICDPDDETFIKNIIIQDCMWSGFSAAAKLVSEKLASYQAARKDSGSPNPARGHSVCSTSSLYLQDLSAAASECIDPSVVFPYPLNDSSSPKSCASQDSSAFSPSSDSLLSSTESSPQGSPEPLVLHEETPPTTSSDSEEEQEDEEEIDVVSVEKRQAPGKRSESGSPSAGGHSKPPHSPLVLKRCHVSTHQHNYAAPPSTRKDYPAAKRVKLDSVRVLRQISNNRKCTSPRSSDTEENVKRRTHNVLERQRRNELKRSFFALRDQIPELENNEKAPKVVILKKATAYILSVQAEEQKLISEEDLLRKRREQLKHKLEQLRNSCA

Results are given in words; binding and its absence hold for the method and conditions named. For some of these results: In cells and extracts the contact can be indirect. Some binding calls cover weakened binding; strength is not graded here. Sequences can lack the tags named with a protein.

Assay [1] deals with LexA-Max (full length Max polypeptide fused to LexA) (UniProt P61244). Description: yeast two-hybrid screen of a human keratinocyte cDNA library with the LexA-Max bait.
Assay [2] has as its target full length Mxi2 fused to LexA1-220 (UniProt P0A7C2). Description: yeast two-hybrid screen of a HeLa cDNA library with the LexA-Mxi2 bait; both colonies held the partial Omi cDNA.
For assay [3], the target named is LexA-Max (full length Max polypeptide fused to LexA) (UniProt P61244). Description: yeast two-hybrid.
Assay [4] deals with T1, RB protein (LexA fusion bait) (UniProt P06400).
T1 sequence (looked up): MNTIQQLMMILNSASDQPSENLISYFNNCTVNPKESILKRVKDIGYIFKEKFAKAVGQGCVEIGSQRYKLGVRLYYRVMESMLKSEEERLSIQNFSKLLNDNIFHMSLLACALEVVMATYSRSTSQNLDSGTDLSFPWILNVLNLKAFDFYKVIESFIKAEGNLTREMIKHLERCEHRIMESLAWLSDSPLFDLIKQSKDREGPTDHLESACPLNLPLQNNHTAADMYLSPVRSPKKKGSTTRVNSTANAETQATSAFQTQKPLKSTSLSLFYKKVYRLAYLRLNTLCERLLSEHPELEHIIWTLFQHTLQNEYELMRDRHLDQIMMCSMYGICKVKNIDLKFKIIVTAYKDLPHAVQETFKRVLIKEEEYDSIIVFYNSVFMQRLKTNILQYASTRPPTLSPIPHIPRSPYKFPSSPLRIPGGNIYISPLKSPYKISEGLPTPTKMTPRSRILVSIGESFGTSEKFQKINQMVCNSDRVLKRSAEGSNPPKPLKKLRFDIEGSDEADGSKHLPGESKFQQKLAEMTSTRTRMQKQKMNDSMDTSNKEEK
Description: yeast mating assay (two-hybrid).

For assay [5], the target named is T2, p107 protein (LexA fusion bait) (UniProt P28749).
T2 sequence (looked up): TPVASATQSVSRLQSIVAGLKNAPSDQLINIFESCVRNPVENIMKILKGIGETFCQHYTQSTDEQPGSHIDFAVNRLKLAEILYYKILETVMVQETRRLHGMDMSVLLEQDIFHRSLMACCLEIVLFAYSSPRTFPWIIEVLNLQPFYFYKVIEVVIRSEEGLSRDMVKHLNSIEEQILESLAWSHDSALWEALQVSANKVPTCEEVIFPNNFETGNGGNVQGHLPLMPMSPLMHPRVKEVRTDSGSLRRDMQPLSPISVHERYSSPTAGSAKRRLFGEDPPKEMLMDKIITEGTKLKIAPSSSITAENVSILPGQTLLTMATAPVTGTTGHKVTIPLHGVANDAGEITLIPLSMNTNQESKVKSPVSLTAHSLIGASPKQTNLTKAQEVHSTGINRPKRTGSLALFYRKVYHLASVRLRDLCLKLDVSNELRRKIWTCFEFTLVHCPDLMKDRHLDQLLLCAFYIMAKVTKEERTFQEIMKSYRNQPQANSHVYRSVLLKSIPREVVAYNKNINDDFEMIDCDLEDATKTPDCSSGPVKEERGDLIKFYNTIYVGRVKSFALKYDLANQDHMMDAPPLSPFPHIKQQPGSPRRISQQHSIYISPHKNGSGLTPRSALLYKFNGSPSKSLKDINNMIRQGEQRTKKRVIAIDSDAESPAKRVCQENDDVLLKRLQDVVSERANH
Description: yeast mating assay (two-hybrid).

In assay [6] the target is p130 protein (LexA fusion bait) (UniProt Q08999). Description: yeast mating assay (two-hybrid).
The target of assay [7] is LexA-Max (full length Max polypeptide fused to LexA) (UniProt P61244). As to the kind of experiment: yeast two-hybrid, X-gal plates (B42-Nmi prey, LexA bait).
Assay [8] has the same target. Description: yeast two-hybrid (member of the group by paragraph 437: bHLH-Zip).
Assay [9] addresses Full-length His-tagged N-myc (pCMV8 vector, expressed in 293 cells) (UniProt P04198). Description: co-precipitation from transfected mammalian cells.
Assay [10] deals with GST-C-myc (full length C-myc in pEBG vector, expressed in 293 cells) (UniProt P01106). Description: co-precipitation from transfected mammalian cells.
In assay [11] the target is Full-length His-tagged N-myc (pCMV8 vector, expressed in 293 cells) (UniProt P04198). As to the kind of experiment: co-precipitation from 293 cells on His-resin, anti-HA Western blot. In general terms: In western blotting, separated proteins are transferred to a membrane and probed.
For assay [12], the target named is GST-C-myc (full length C-myc in pEBG vector, expressed in 293 cells) (UniProt P01106). As to the kind of experiment: co-precipitation from 293 cells on GST-resin (glutathione-agarose), anti-HA Western blot.

B1: L-myc (positive clone of the human keratinocyte cDNA library in pJG4-5) (protein, UniProt P12524 260-364, looked up, not shown: large carriers)
chain: VESEAAQSCHPKPVSSDTEDVTKRKNHNFLERKRRNDLRSRFLALRDQVPTLASCSKAPKVVILSKALEYLQALVGAEKRMATEKRQLRCRQQQLQKRIAYLTGY
In the case of B1, in assay [1], the binding result is on record as “binds”.

B2: partial Omi polypeptide of 313 amino acids fused in frame to the B42 activation domain of the pJG-4.5 vector (protein, not shown: large carriers)
chain: QYNFIADVVEKTAPAVVYIEILDRHPFLGREVPISNGSGFVVAADGLIVTNAHVVADRRRVRVRLLSGDTYEAVVTAVDPVADIATLRIQTKEPLPTLPLGRSADVRQGEFVVAMGSPFALQNTITSGIVSSAQRPARDLGLPQTNVEYIQTDAAIDFGNSGGPLVNLDGEVIGVNTMKVTAGISFAIPSDRLREFLHRGEKKNSSSGISGSQRRYIGVMMLTLSPSILAELQLREPSFPDVQHGVLIHKVILGSPAHRAGLRPGDVILAIGEQMVQNAEDVYEAVRTQSQLAVQIRRGRETLTLYVTPEVTE
Regarding B2, the binding result in assay [2] is listed as “binds”.

B3: Mad4 (positive clone of the human keratinocyte cDNA library in pJG4-5) (protein, UniProt Q14582 1-209, looked up, not shown: large carriers)
chain: MELNSLLILLEAAEYLERRDREAEHGYASVLPFDGDFAREKTKAAGLVRKAPNNRSSHNELEKHRRAKLRLYLEQLKQLVPLGPDSTRHTTLSLLKRAKVHIKKLEEQDRRALSIKEQLQQEHRFLKRRLEQLSVQSVERVRTDSTGSAVSTDDSEQEVDIEGMEFGPGELDSVGSSSDADDHYSLQSGTGGDSGFGPHCRRLGRPALS
Take B3: the binding result in assay [1] is listed as “binds”.

B4: p32.2, polypeptide of 756 amino acids encoded by clone 32.2, fused in frame with the B42 activation domain of the pJG-4.5 vector (protein, not shown: large carriers)
chain: IENDQQHQAAELECEEDVIPDSPITAFSFSGVNRLRRKENPHVRYIEQTHTKLEHSVCANEMRKVSKSSTHPQHNPNENEILVADTYDQSQSPMAKAHGTSSYTPDKSSFNLATVVAETLGLGVQEESETQGPMSPLGDELYHCLEGNHKKQPFEESTRNTEDSLRFSDSTSKTPPQEELPTRVSSPVFGATSSIKSGLDLNTSLSPSLLQPGKKKHLKTLPFSNTCISRLEKTRSKSEDSALFTHHSLGSEVNKIIIQSSNKQILINKNISESLGEQNRTEYGKDSNTDKHLEPLKSLGGRTSKRKKTEEESEHEVSCPQASFDKENAFPFPMDNQFSMNGDCVMDKPLDLSDRFSAIQRQEKSQGSETSKNKFRQVTLYEALKTIPKGFSSSRKASDGNCTLPKDSPGEPCSQECIILQPLNKCSPDNKPSLQIKEENAVFKIPLRPRESLETENVLDDIKSAGSHEPIKIQTRSDHGGCELASVLQLNPCRTGKIKSLQNNQDVSFENIQWSIDPGADLSQYKMDVTVIDTKDGSQSKLGGETVDMDCTLVSETVLLKMKKQEQKGEKSSNEERKMNDSLEDMFDRTTHEEYESCLADSFSQAADEEEELSTATKKLHTHGDKQDKVKQKAFVEPYFKGDERETSLQNFPHIECVRKKEERRKLLGHTCKECEIYYADMPAEEREKKLASCSRHRFRYIPPNTPENFWEVGFPSTQTCMERGYIKEDLDPCPRPKRRQPYNAIFSPKGKEQKT
Regarding B4, the binding result in assay [3], in assay [4], in assay [5] and in assay [6] was “binds” in each case.

B5: full length Nmi fused in-frame with the transcriptional activator B42 in JG4-5 vector (protein, not shown: small tags and cut ends)
chain: MEADKDDTQQILKEHSPDEFIKDEQNKGLIDEITKKNIQLKKEIQKLETELQEATKEFQIKEDIPETKMKFLSVETPENDSQLSNISCSFQVSSKVPYEIQKGQALITFEKEEVAQNVVSMSKHHVQIKDVNLEVTAKPVPLNSGVRFQVYVEVSKMKINVTEIPDTLREDQMRDKLELSFSKFRNGGGEVDRVDYDRQSGSAVITFVEIGVADKILKKKEYPLYINQTCHRVTVSPYTEIHLKKYQIFSGTSKRTVLLTGMEGIQMDEEIVEDLINIHFQRAKNGGGEVDVVKCSLGQPHIAYFEE
B5: the binding entry in assay [7] and in assay [8] was “binds” throughout.

B6: Nmi-HA (full length Nmi in pMT3 vector, expressed in 293 cells) (protein, not shown: small tags and cut ends)
chain: MEADKDDTQQILKEHSPDEFIKDEQNKGLIDEITKKNIQLKKEIQKLETELQEATKEFQIKEDIPETKMKFLSVETPENDSQLSNISCSFQVSSKVPYEIQKGQALITFEKEEVAQNVVSMSKHHVQIKDVNLEVTAKPVPLNSGVRFQVYVEVSKMKINVTEIPDTLREDQMRDKLELSFSKFRNGGGEVDRVDYDRQSGSAVITFVEIGVADKILKKKEYPLYINQTCHRVTVSPYTEIHLKKYQIFSGTSKRTVLLTGMEGIQMDEEIVEDLINIHFQRAKNGGGEVDVVKCSLGQPHIAYFEE
In the case of B6, the binding result in [9], in assay [10], in [11] and in assay [12] was “binds” throughout.
